No constants are given. Whether binding was seen depends on the method and setting. Some binding calls cover weakened binding; strength is not graded here.
Target: T1, CD73 ECD protein (Homo sapiens (Human)) (UniProt P21589)
T1 sequence: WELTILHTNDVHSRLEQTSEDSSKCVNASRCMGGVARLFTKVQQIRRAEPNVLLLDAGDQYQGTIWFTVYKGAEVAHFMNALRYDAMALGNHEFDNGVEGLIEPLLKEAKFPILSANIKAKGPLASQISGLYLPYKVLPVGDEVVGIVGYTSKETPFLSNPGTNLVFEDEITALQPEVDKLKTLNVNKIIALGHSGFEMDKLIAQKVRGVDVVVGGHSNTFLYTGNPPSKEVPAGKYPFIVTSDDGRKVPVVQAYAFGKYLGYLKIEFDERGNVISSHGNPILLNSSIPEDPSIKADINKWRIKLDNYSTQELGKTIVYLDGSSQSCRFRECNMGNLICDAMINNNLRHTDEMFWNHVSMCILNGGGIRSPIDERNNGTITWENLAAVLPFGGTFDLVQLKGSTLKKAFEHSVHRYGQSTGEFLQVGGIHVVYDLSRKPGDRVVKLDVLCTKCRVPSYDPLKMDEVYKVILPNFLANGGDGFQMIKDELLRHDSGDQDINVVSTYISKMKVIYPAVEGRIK
Test: competition ELISA, CD73 ECD pre-incubated with Hu101-28; competitor biotinylated MEDI-9447

B1: Hu101-28 (antibody, V domains shown)
VH: EVQLQESGPGLVKPSETLSLTCAVSGYSITSGYYWNWIRQPPGKKLEWMGYINYGGSNGYNPSLKSRITISRDTSKNQFSLKLSSVTAADTAVYYCARDYDAYYEALDDWGQGTTVTVSS
VL: EIVLSQSPATLSLSPGERATLSCRASSRVNYMHWYQQKPGQSPRPWISATSNLASGVPARFSGSGSGTSYTLTISSLEPEDFAVYYCQQWSSNPPTFGGGTKVEIK
- binding: binds
